At least one compound was matched to its structure with a doubt left.
How the values were obtained:
Type in all cases: cell-based, human
[1] = test system: DE derived from hESC; assay: Definitive endoderm morphology after 5-aza-2-deoxycytidine (Example 10); settings: 10 nM on day 2-3, compared to untreated control DE
[2] = test system: HiPSC-derived DE; assay: as above; settings: 10 nM on day 2-3, compared to control DE
[3] = test system: HiPSC-derived DE; assay: Oct4-immunstaining of definitive endoderm (Example 10); settings: 10 nM on day 2-3; at day 7, compared to untreated controls
[4] = test system: hESC-derived DE; assay: qRT-PCR of stem cell, DE and extraembryonic markers in DE (Example 10)
[5] = test system: HiPSC-derived DE; assay: as above
[6] = test system: DE derived from hPSC lines P11032, SA181 and P11012; assay: qRT-PCR of stem cell and DE markers in DE, 5-aza-2-deoxycytidine or 5-azacytidine (Example 12); settings: 10 nM 5-aza-2-deoxycytidine or 1 μM 5-azacytidine on day 2-3; day 7
Procedure: Following the basic protocols C (P11032, SA181) or D (P11012), cells derived from 3 different hPSC lines were treated with either 10 nM 5-aza-2-deoxycytidine or 1 μM 5-azacytidine on day 2-3 during the pre-endodermal phase.

[7] = 10 nM on day 2-3, 3-4, 2-4, and 4-6, vs untreated controls
[8] = 10 nM, treatment on days 2-4 and 4-6
[9] = 10 nM, treatment on days other than 2-4 and 4-6

## Nc1ncn([C@H]2C[C@H](O)[C@@H](CO)O2)c(=O)n1 [5-aza-2-deoxycytidine]
[1]
  DE morphology: more homogeneous and has more pronounced cell-cell contacts
[2]
  DE morphology: more confluent and has more pronounced cell-cell contacts
[3]
  Oct4-immunopositive cells: much less
[4]; 10 nM
  mRNA expression of the stem cell marker Nanog: strongly decreased
[4]; [7]
  expression of the stem cell marker Oct4: much lower
[4]; 10 nM, compared to untreated controls, effect stronger than in hiPSC-derived DE
  expression of the DE markers Sox17, Cxcr4, FoxA2 and hHex: up-regulated
[4]; [8]
  Sox7 mRNA levels: increases
[4]; [9]
  expression of the extraembryonic marker Sox7: very low
[5]; 10 nM
  mRNA expression of the stem cell marker Nanog: mainly unaffected
[5]; [7]
  expression of the stem cell marker Oct4: much lower
[5]; 10 nM, compared to untreated controls
  expression of the DE markers Sox17, Cxcr4, FoxA2 and hHex: up-regulated
[5]; [8]
  Sox7 mRNA levels: increases
[5]; [9]
  expression of the extraembryonic marker Sox7: very low
[6]
  Oct4 and Nanog mRNA: significantly decreased
  mRNA expression of the DE markers Sox17 and Cxcr4: No significant changes

Source: patent US10294457B2, “Maturation of hepatocyte-like cells derived from human pluripotent stem cells” (Takara Bio Europe AB, priority 2012, dated 2019)
